PubChem BioAssay AID504764 | Drosophila RNAi Screening Center | 2011

Test: 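Genome-wide screen for regulators of Notch-driven gene expression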 (primary screen)
Cells: Drosophila Kc167 cells
Reagents: long dsRNA against Drosophila genes
Timing: about 5 days (4 days dsRNA, then 24 h after transfection)
Treatment: transfection of constitutively active membrane-tethered Notch lacking the extracellular domain, read 24 h later
Read-out: 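Firefly luciferase from an E(spl)m3 reporter with active Notch, plus control-promoter and uninduced reporter wells for normalisation; unnormalised counts, duplicate wells a and b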
Reading the numbers: induced reporter light, run 1, well a and induced reporter light, run 1, well b: higher = more light from the Notch target reporter with active Notch; control promoter light, run 1, well a and control promoter light, run 1, well b: higher = more light from the viral control promoter (cell number, transfection, viability); uninduced reporter light, run 1, well a: higher = more light from the Notch target reporter without active Notch
Active means: 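Wells with low control signal or poorly matching duplicates excluded; duplicates averaged; per source plate, z beyond ±2 for induced/control log2 ratio or beyond ±1.8 for induced/uninduced marks a hit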
Meaning of the calls: active = modifier hit (raised or lowered Notch signal); inactive = not a hit
The deposit covers about 22,000 reagents; below is a random part of those with a known target gene and a result. Over the whole deposit, 403 (1.9%) are marked active. 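Unnormalised raw counts per well; ratio z-scores behind the hit calls and whether each hit raises or lowers signal are not deposited.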 Names joined by + are all predicted targets of the reagent. Not stated in the record: the amount of reagent.

Gene,amplicon,"induced reporter light, run 1, well a","induced reporter light, run 1, well b","control promoter light, run 1, well a","control promoter light, run 1, well b","uninduced reporter light, run 1, well a",Outcome
CG14743,DRSC06479,2.01e5,1.93e5,1.90e5,1.96e5,17920,inactive
kug (kugelei),DRSC10911,1.75e5,1.80e5,88800,98705,10185,inactive
CG9095,DRSC20150,91620,95380,1.06e5,1.45e5,14740,inactive
Mvb12 (Multivesicular body subunit 12),DRSC20027,72015,62870,87680,54585,10985,inactive
ATP8B (ATPase 8B),DRSC14961,72035,69170,77395,50605,17500,inactive
Nulp1 (Nuclear localized protein 1),DRSC09677,1.38e5,1.21e5,93270,48660,11855,inactive
CG18765,DRSC15392,1.10e5,1.09e5,1.06e5,81620,7730,inactive
srp (serpent),DRSC13125,1.65e5,1.31e5,1.39e5,1.83e5,9645,inactive
srp (serpent),DRSC17068,11175,12632,10680,11780,2205,inactive
Rfx,DRSC16820,87560,76700,68470,56860,5495,inactive
CG42843 (retired record),DRSC01118,1.39e5,1.24e5,1.54e5,1.48e5,9855,inactive
CG42843 (retired record),DRSC02231,1.24e5,1.35e5,66000,90685,16460,inactive
CG42843 (retired record),DRSC02233,1.01e5,1.11e5,70580,74960,14780,inactive
ttm2 (tiny tim 2),DRSC08268,1.67e5,1.33e5,2.28e5,2.77e5,9932,inactive
bmm (brummer),DRSC10502,1.04e5,1.36e5,68800,84205,7865,inactive
Pi3K92E (Phosphatidylinositol 3-kinase 92E),DRSC16788,1.28e5,1.46e5,1.45e5,1.59e5,13565,inactive
CG15393 (retired record),DRSC00407,1.18e5,1.32e5,97705,55995,7880,inactive
CG43672,DRSC19452,62740,64080,68420,70450,8665,inactive
CG43672,DRSC20108,83195,83070,1.02e5,85995,12690,inactive
RpS19a (Ribosomal protein S19a),DRSC20281,14295,13620,16130,17525,1175,inactive
sug (sugarbabe),DRSC06855,1.99e5,1.81e5,2.28e5,1.88e5,14510,inactive
CG14151,DRSC10153,2.15e5,2.35e5,3.17e5,2.31e5,12200,inactive
CG17050 (retired record),DRSC06651,94965,94450,1.30e5,1.12e5,8930,inactive
CG4294,DRSC04460,1.95e5,1.45e5,1.15e5,1.06e5,10045,inactive
CG31460,DRSC14370,1.25e5,1.16e5,73330,66570,8815,inactive
CG34028,DRSC17614,76150,71385,89855,67965,5245,inactive
teq (Tequila),DRSC10298,2.09e5,2.58e5,3.03e5,2.90e5,18025,inactive
teq (Tequila),DRSC11301,2.46e5,2.36e5,3.68e5,3.37e5,13970,inactive
teq (Tequila),DRSC11302,2.27e5,2.45e5,2.93e5,2.71e5,14615,inactive
CG30457,DRSC06661,1.20e5,84485,1.29e5,1.22e5,10170,inactive

Entries listed so far whose target name begins with R or r:
Gene,amplicon,"induced reporter light, run 1, well a","induced reporter light, run 1, well b","control promoter light, run 1, well a","control promoter light, run 1, well b","uninduced reporter light, run 1, well a",Outcome
Rfx,DRSC16820,87560,76700,68470,56860,5495,inactive
RpS19a (Ribosomal protein S19a),DRSC20281,14295,13620,16130,17525,1175,inactive

More reagents:
Gene,amplicon,"induced reporter light, run 1, well a","induced reporter light, run 1, well b","control promoter light, run 1, well a","control promoter light, run 1, well b","uninduced reporter light, run 1, well a",Outcome
CG15279,DRSC01935,2.18e5,2.57e5,2.10e5,2.03e5,17600,inactive
CG32102,DRSC22015,,,,,,inactive
Gdap2,DRSC06789,2.19e5,2.18e5,2.59e5,2.68e5,21145,inactive
Gdap2,DRSC06790,2.13e5,1.91e5,2.24e5,2.42e5,17600,inactive
pre-mod(mdg4)-AD + mod(mdg4) + pre-mod(mdg4)-X + 3 more,DRSC16328,1.69e5,1.75e5,2.11e5,1.70e5,15275,inactive
CG11560,DRSC09843,1.04e5,81480,1.03e5,44310,11290,active
Arc2 (Activity-regulated cytoskeleton associated protein 2),DRSC06436,79925,93840,1.15e5,79210,9600,inactive
Plp (Pericentrin-like protein),DRSC10006,2.32e5,1.66e5,3.57e5,2.28e5,11785,inactive
Plp (Pericentrin-like protein),DRSC10333,1.65e5,2.09e5,2.60e5,1.93e5,7620,inactive
Plp (Pericentrin-like protein),DRSC10700,1.13e5,1.08e5,55635,87915,10690,inactive
eIF2Balpha (eukaryotic translation initiation factor 2B subunit alpha),DRSC16332,1.10e5,1.38e5,1.91e5,1.99e5,8788,inactive
CG11619,DRSC09849,51965,64125,61725,46365,2475,inactive
CG34115,DRSC03840,81140,72970,64635,70495,7555,inactive
Grd (Glycine receptor),DRSC11178,2.07e5,1.84e5,1.91e5,2.27e5,7980,inactive
Taf10b + Taf10,DRSC00793,90545,75710,41080,33250,6425,inactive
CG1532,DRSC20516,1.08e5,88000,96775,43100,7678,inactive
Cyt-c-d (Cytochrome c distal),DRSC03309,1.21e5,1.28e5,1.38e5,1.64e5,9710,inactive
CG13875,DRSC08345,1.71e5,1.50e5,1.98e5,1.59e5,7350,inactive
CG33958,DRSC06472,72460,80565,84460,1.00e5,6870,inactive
CG33958,DRSC06944,1.43e5,1.16e5,1.50e5,1.08e5,11815,inactive
